Assay [1] has as its target T1, HA-tagged Cell division protein A (CdpA-HA) (Haloferax volcanii) (UniProt D4GTB2).
T1 sequence: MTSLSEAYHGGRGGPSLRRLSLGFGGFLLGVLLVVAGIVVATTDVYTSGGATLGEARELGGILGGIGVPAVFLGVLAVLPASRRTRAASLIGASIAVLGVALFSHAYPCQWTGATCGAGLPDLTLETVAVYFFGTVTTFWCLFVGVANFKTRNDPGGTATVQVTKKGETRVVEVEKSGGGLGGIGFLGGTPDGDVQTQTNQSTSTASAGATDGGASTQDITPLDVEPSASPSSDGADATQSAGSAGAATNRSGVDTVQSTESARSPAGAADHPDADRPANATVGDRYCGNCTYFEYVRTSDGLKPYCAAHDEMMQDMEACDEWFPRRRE
In words: affinity purification with mass spectrometry.

The target in assay [2] is T2, HA-tagged FtsZ2 (FtsZ2-HA) (Haloferax volcanii) (UniProt D4GSH7).
T2 sequence: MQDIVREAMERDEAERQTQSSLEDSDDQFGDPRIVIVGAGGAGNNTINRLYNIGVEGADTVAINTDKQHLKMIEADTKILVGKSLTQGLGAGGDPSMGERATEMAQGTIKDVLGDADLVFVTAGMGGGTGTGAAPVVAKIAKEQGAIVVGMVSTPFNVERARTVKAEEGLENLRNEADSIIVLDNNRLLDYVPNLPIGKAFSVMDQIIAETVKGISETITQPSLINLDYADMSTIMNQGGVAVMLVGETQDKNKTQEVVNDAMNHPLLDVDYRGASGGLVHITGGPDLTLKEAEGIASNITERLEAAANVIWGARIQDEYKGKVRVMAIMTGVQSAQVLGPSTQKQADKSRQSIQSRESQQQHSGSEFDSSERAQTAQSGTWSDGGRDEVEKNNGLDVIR
Put plainly: affinity purification with mass spectrometry.

These are yes or no findings as the source states them, for the method shown. In cells and extracts the contact can be indirect. Here binding means that the protein was enriched with, or labelled near, the bait; the list need not be complete. Where a sequence is shown, tags or fusion partners need not be part of it.

As for CdpB1 (from UniProt D4H036), the binding entry in assay [1] was “binds”. On the same count and under the same terms, next, small GTPase ArvA (from UniProt D4GYC9): “binds”; CdpB2 (from UniProt D4GTJ3): “binds”.

B1: actin-like protein volactin (protein, UniProt D4GU28 1-345)
chain: MAKGLDVGTMNILSASQDGSETVFVQQRNSFVEIDYSDMAEQMLSRSDVLHIRKDDKVYVVGDDALNFANIFGKETRRPMQHGILSSEESSAIPMIKLIIEQVVGSPSRPNERLFYSSPADPIDSDLSTLYHDKTLESMLGDMGYDPEPINEGMAVIYSELADNNFTGLGVSFGAGMTNICLAYYAVPVMQFSIARGGDWIDQQTAQATGTAVDKVTSIKEDDFQLDFRTDVGGVEGALSIYYENLLDYVIENIEREVDEEDIEEGLDVPVVVTGGTSSPEGFEELFEHHLEDSTIPFSVNEVRSIDRPLYSVARGSLVAARSEEESDGGASDPEPEAEAAPESN
In the case of B1, the binding result in assay [1] was “binds”.

B2: CetZ2 (protein, UniProt D4GTC1 1-360)
chain: MKTVLIGVGQAGGKLASALQSFDRQTGFGAVLDAVAVNTAKADLQSLPVETVLIGQDRVNGHGVGGDNELGAAVMESDQTEVMSALDGRVTAEAESIFVVAGLGGGSGSGGAPVLAKALAGVYDVPVYVLGILPGADEGALYQVNAGRSLKTVAREADAVLLVDNDAFRSAGESMSEGYDAINEAIARRVGLLLAAGEATEGVGESVVDTSEVINTLRSGGIAALGYASAEASPNAEDNINAVMSTTRRAVLTGTSLPDASDADAALVVIAGEPDTIPRKGVERARRWVEDETGSMQVRGGDFPLESGRLASLVLLGGVERSERVESFMERAREAIDKAETEPREDPKGMWHSDDLDDLL
Turning to B2, the binding entry in assay [2] was “binds”.
